Values quoted from earlier work, collected in PMC10046692 (Cancers, 2023).

How the values were obtained:
C4-2B cells = details: read-out: IC50 values C4-2B; cited from earlier work
LNCaP cells = details: read-out: IC50 values LnCaP; cited from earlier work
22Rv1 cells = details: read-out: IC50 values 22RV1; cited from earlier work

## CNC(=O)c1ccc(N2C(=S)N(c3ccc(C#N)c(C(F)(F)F)c3)C(=O)C2(C)C)cc1F [Enzalutamide]
C4-2B cells
  IC50: 1190 nM
LNCaP cells
  IC50: 1890 nM
22Rv1 cells
  IC50: 1380 nM
